Holding throughout (assay type): cell-based, human
The test system of data set [1] is GCase activity in SK-N-SH cells. Nature of the data set: Live cell high content imaging of substrate turnover in SK-N-SH cells.
Another data set concerns SK-N-SH cells. Briefly: Cellular retention of fluorescent signal in live SK-N-SH cells. The note with it: substrate 10 μM for 2 h, washed, media with AT3375 10 μM; imaged 0 h to 3 h.
Data set [2] relates to GCase activity in fixed SK-N-SH cells. Nature of the data set: High content imaging of substrate 4 and 9b in fixed SK-N-SH cells. The settings on record: for dose dependence of signal intensity in fixed cells: 5 μM vs 10 μM substrate, 3 h, paraformaldehyde fixed.

Three compounds from patent publication US20250130225A1, “SUBSTRATES FOR IMAGING GLUCOCEREBROSIDASE ACTIVITY” (SIMON FRASER UNIVERSITY, priority 2021, published 2025) can be followed below.

On to `COc1cc(/N=N/c2ccc(C)cc2[N+](=O)[O-])c(C)cc1/N=N/c1ccc(N(C)CCCC(=O)NCCCO[C@@H]2O[C@H](COCc3cn(CCCNC(=O)[C@H](CCCCN(C)C)NC(=O)CCC4=[N+]5C(=Cc6c(C)cc(C)n6[B-]5(F)F)C=C4)nn3)[C@@H](O)[C@H](O)[C@H]2O)cc1` [substrate 1, (S)-2-(3-(5,5-difluoro-7,9-dimethyl-dipyrrolo[1,2-c:2′,1′-f][1,3,2]diazaborinin-4-ium-5-uid-3-yl)propanamido)-6-(dimethylamino)-N-(3-(4-((((2R,3S,4S,5R,6R)-3,4,5-trihydroxy-6-(3-(4-((4-((E)-(2-methoxy-5-methyl-4-((E)-(4-methyl-2-nitrophenyl)diazenyl)phenyl)diazenyl)phenyl)(methyl)amino)butanamido)propoxy)tetrahydro-2H-pyran-2-yl)methoxy)methyl)-1H-1,2,3-triazol-1-yl)propyl)hexanamide], for which, in data set [1], the “dose dependence of fluorescence per cell” value is given as “linear increase in fluorescence”. Besides, in data set [1] (various substrate concentrations), the “time dependence of fluorescence per cell” value is on record as “linear increase from 30 minutes to 3 hours”. In the data set with SK-N-SH cells, the “stability of signal intensity after replacement of media” value is given as “stable at all time points measured”.
For the compound `COc1cc(/N=N/c2ccc([N+](=O)[O-])cc2)c(OC)cc1/N=N/c1ccc(N(C)CCCC(=O)NCCCO[C@@H]2O[C@H](COCc3cn(CCNC(=O)CCC4=[N+]5C(=Cc6ccc(-c7ccc[nH]7)n6[B-]5(F)F)C=C4)nn3)[C@@H](O)[C@H](O)[C@H]2O)cc1` [substrate 9b, 3-(3-((2-(4-((((2R,3S,4S,5R,6R)-6-(3-(4-((4-((E)-(2,5-dimethoxy-4-((E)-(4-nitrophenyl)diazenyl)phenyl)diazenyl)phenyl)(methyl)amino)-butanamido)propoxy)-3,4,5-trihydroxytetrahydro-2H-pyran-2-yl)methoxy)methyl)-1H-1,2,3-triazol-1-yl)ethyl)amino)-3-oxopropyl)-5,5-difluoro-7-(1H-pyrrol-2-yl)-5H-dipyrrolo[1,2-c:2′,1′-f][1,3,2]diazaborinin-4-ium-5-uide, reference compound], the “dose dependence of signal intensity in fixed cells” value in data set [2] is on record as “no dose dependent difference in signal intensity”. The “stability of signal intensity after replacement of media” value with SK-N-SH cells is “showed decay within the first 30 minutes”.
Consider `COc1cc(/N=N/c2ccc([N+](=O)[O-])cc2)c(OC)cc1/N=N/c1ccc(N(C)CCCC(=O)NCCCO[C@@H]2O[C@H](COCc3cn(CCCNC(=O)[C@H](CCCCNC(=O)OCC4[C@H]5CCc6nnn(CCCCC(NC(C)=O)C(=O)NC(CCCCN)C(=O)NC(CCCCN)C(=O)NC(CCCCN)C(N)=O)c6CC[C@@H]45)NC(=O)c4ccc(-c5c6ccc(=[N+](C)C)cc-6oc6cc(N(C)C)ccc56)c(C(=O)O)c4)nn3)[C@@H](O)[C@H](O)[C@H]2O)cc1` (some centres unmarked) [substrate 4], for which, in data set [2], the “dose dependence of signal intensity in fixed cells” value was “doubling in fluorescent signal intensity with a doubling in substrate concentration”. In addition, the “stability of signal after paraformaldehyde fixation” value in data set [2] (fixed SK-N-SH cells) was “stable over the course of 6 days”. The “time dependence of fluorescence per cell in fixed cells” value in data set [2] (fixed SK-N-SH cells, various substrate concentrations) was “linear increase from 30 minutes to 3 hours”.
